Publication PMC6985654
Results are given in words; binding and its absence hold for the method and conditions named. In cells and extracts the contact can be indirect. Some results given as binding are weak or reduced against the parent protein; the word gives no strength. Sequences can lack the tags named with a protein.

Chains of the proteins cited; added tags and fusions are not shown.
UniProt P27641: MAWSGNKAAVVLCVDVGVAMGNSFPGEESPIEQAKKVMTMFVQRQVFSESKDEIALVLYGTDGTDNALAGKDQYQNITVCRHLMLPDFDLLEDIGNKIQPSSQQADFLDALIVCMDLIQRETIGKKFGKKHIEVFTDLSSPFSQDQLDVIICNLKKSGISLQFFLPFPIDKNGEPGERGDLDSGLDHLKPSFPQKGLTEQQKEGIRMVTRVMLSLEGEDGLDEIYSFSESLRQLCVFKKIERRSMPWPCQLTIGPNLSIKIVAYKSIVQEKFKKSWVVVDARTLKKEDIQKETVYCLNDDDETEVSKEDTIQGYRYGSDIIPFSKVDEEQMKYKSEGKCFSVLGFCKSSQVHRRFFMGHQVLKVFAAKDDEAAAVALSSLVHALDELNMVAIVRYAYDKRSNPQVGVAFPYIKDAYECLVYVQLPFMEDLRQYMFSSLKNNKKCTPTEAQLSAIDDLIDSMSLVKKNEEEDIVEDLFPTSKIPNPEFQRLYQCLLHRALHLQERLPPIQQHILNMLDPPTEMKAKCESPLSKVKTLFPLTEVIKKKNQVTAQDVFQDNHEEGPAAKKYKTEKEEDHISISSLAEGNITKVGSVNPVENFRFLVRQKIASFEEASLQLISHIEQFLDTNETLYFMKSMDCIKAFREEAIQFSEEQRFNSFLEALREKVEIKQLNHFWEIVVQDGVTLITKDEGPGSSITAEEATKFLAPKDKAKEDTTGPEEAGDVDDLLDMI

T1: GFP tagged RBM14 (Gfp-Rbm14) (mouse) (UniProt Q8C2Q3)
T1 sequence: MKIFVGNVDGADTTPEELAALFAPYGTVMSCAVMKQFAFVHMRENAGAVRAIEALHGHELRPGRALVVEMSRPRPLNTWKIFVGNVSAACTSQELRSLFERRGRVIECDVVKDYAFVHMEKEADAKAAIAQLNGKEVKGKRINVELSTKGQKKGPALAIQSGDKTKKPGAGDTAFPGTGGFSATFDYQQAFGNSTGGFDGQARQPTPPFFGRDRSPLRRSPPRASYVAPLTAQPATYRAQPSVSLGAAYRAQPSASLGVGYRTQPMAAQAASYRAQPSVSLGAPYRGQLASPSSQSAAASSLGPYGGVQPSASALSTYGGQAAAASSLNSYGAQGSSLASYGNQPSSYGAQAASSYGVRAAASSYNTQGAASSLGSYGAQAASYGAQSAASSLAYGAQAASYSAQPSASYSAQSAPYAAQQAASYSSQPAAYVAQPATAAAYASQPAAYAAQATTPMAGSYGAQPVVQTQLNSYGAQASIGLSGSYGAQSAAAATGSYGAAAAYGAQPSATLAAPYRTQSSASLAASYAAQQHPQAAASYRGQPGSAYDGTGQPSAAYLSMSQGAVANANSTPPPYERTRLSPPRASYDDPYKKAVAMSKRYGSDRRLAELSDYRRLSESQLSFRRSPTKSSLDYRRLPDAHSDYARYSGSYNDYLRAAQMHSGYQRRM


Molecular target: T1, GFP tagged RBM14 (Gfp-Rbm14) (mouse)
Experiment: co-IP; anti-GFP antibody (Abcam ab290) or IgG cross-linked (DSS) to Protein A/G magnetic beads; lysate of mouse ESCs (1 x 10^7 cells), 4°C overnight; five washes; eluate to western blot

| Molecule | binding |
| --- | --- |
| Ku80 (from UniProt P27641 1-732) | no binding |
| SF3B1 (protein, UniProt Q99NB9 1-1304) MAKIAKTHEDIEAQIREIQGKKAALDEAQGVGLDSTGYYDQEIYGGSDSRFAGYVTSIAATELEDDDDDYSSSTSLLGQKKPGYHAPVALLNDIPQSTEQYDPFAEHRPPKIADREDEYKKHRRTMIISPERLDPFADGGKTPDPKMNARTYMDVMREQHLTKEEREIRQQLAEKAKAGELKVVNGAAASQPPSKRKRRWDQTADQTPGATPKKLSSWDQAETPGHTPSLRWDETPGRAKGSETPGATPGSKIWDPTPSHTPAGAATPGRGDTPGHATPGHGGATSSARKNRWDETPKTERDTPGHGSGWAETPRTDRGGDSIGETPTPGASKRKSRWDETPASQMGGSTPVLTPGKTPIGTPAMNMATPTPGHIMSMTPEQLQAWRWEREIDERNRPLSDEELDAMFPEGYKVLPPPAGYVPIRTPARKLTATPTPLGGMTGFHMQTEDRTMKSVNDQPSGNLPFLKPDDIQYFDKLLVDVDESTLSPEEQKERKIMKLLLKIKNGTPPMRKAALRQITDKAREFGAGPLFNQILPLLMSPTLEDQERHLLVKVIDRILYKLDDLVRPYVHKILVVIEPLLIDEDYYARVEGREIISNLAKAAGLATMISTMRPDIDNMDEYVRNTTARAFAVVASALGIPSLLPFLKAVCKSKKSWQARHTGIKIVQQIAILMGCAILPHLRSLVEIIEHGLVDEQQKVRTISALAIAALAEAATPYGIESFDSVLKPLWKGIRQHRGKGLAAFLKAIGYLIPLMDAEYANYYTREVMLILIREFQSPDEEMKKIVLKVVKQCCGTDGVEANYIKTEILPPFFKHFWQHRMALDRRNYRQLVDTTVELANKVGAAEIISRIVDDLKDEAEQYRKMVMETIEKIMGNLGAADIDHKLEEQLIDGILYAFQEQTTEDSVMLNGFGTVVNALGKRVKPYLPQICGTVLWRLNNKSAKVRQQAADLISRTAVVMKTCQEEKLMGHLGVVLYEYLGEEYPEVLGSILGALKAIVNVIGMHKMTPPIKDLLPRLTPILKNRHEKVQENCIDLVGRIADRGAEYVSAREWMRICFELLELLKAHKKAIRRATVNTFGYIAKAIGPHDVLATLLNNLKVQERQNRVCTTVAIAIVAETCSPFTVLPALMNEYRVPELNVQNGVLKSLSFLFEYIGEMGKDYIYAVTPLLEDALMDRDLVHRQTASAVVQHMSLGVYGFGCEDSLNHLLNYVWPNVFETSPHVIQAVMGALEGLRVAIGPCRMLQYCLQGLFHPARKVRDVYWKIYNSIYIGSQDALIAHYPRIYNDDKNTYIRYDLDYIL | binds |
| SF3B3 (protein, UniProt Q921M3 1-1217) MFLYNLTLQRATGISFAIHGNFSGTKQQEIVVSRGKILELLRPDPNTGKVHTLLTVEVFGVIRSLMAFRLTGGTKDYIVVGSDSGRIVILEYQPSKNMFEKIHQETFGKSGCRRIVPGQFLAVDPKGRAVMISAIEKQKLVYILNRDAAARLTISSPLEAHKANTLVYHVVGVDVGFENPMFACLEMDYEEADNDPTGEAAANTQQTLTFYELDLGLNHVVRKYSEPLEEHGNFLITVPGGSDGPSGVLICSENYITYKNFGDQPDIRCPIPRRRNDLDDPERGMIFVCSATHKTKSMFFFLAQTEQGDIFKITLETDEDMVTEIRLKYFDTVPVAAAMCVLKTGFLFVASEFGNHYLYQIAHLGDDDEEPEFSSAMPLEEGDTFFFQPRPLKNLVLVDELDSLSPILFCQIADLANEDTPQLYVACGRGPRSSLRVLRHGLEVSEMAVSELPGNPNAVWTVRRHIEDEFDAYIIVSFVNATLVLSIGETVEEVTDSGFLGTTPTLSCSLLGDDALVQVYPDGIRHIRADKRVNEWKTPGKKTIVKCAVNQRQVVIALTGGELVYFEMDPSGQLNEYTERKEMSADVVCMSLANVPPGEQRSRFLAVGLVDNTVRIISLDPSDCLQPLSMQALPAQPESLCIVEMGGTEKQDELGERGSIGFLYLNIGLQNGVLLRTVLDPVTGDLSDTRTRYLGSRPVKLFRVRMQGQEAVLAMSSRSWLSYSYQSRFHLTPLSYETLEFASGFASEQCPEGIVAISTNTLRILALEKLGAVFNQVAFPLQYTPRKFVIHPESNNLIIIETDHNAYTEATKAQRKQQMAEEMVEAAGEDERELAAEMAAAFLNENLPESIFGAPKAGNGQWASVIRVMNPIQGNTLDLVQLEQNEAAFSVAVCRFSNTGEDWYVLVGVAKDLILSPRSVAGGFVYTYKLVNNGEKLEFLHKTPVEEVPAAIAPFQGRVLIGVGKLLRVYDLGKKKLLRKCENKHIANYISGIQTIGHRVIVSDVQESFIWVRYKRNENQLIIFADDTYPRWVTTASLLDYDTVAGADKFGNICVVRLPPNTNDEVDEDPTGNKALWDRGLLNGASQKAEVIMNYHVGETVLSLQKTTLIPGGSESLVYTTLSGGIGILVPFTSHEDHDFFQHVEMHLRSEHPPLCGRDHLSFRSYYFPVKNVIDGDLCEQFNSMEPNKQKNVSEELDRTPPEVSKKLEDIRTRYAF | binds |
